From PubChem BioAssay AID652054 (National Center for Advancing Translational Sciences (NCATS), 2013)
Hit rate of the full screen: of about 360,000 compounds, about 9,100 (2.5%) were called active. The shares of active, inactive and inconclusive entries below differ from those in the screen. No stated cut-off is given here; in the data, active means max response below about -50%; inconclusive means no clear call, values can overlap the other calls; inactive means above that.

Amino acid sequences for entries named in this document (tags omitted).
UniProt P35462, whole entry, looked up: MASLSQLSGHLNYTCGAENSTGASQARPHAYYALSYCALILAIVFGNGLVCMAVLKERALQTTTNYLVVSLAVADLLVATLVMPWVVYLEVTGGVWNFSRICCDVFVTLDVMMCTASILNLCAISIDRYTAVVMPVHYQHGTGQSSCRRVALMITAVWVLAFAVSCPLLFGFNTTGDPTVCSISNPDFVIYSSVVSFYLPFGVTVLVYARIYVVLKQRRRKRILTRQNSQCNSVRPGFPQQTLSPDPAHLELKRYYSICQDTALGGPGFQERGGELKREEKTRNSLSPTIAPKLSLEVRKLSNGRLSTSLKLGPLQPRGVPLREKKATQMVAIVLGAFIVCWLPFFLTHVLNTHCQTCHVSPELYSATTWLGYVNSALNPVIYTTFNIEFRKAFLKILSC

These molecules were tested against D(3) dopamine receptor (Homo sapiens) (UniProt P35462) (assay: qHTS of D3 Dopamine Receptor Antagonist: qHTS). Details: D3R cells, DiscoveRx beta-arrestin luminescence, antagonist mode; stronger effect = lower value.
How it was run: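 Cells plated overnight at 1500 cells/well, then exposed to library compounds with dopamine controls for 90 minutes at 37 degrees C. DiscoveRx reagent added for 30–60 minutes at room temperature; luminescence read, quantitative HTS format.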
On the % scale 0 is the no-effect control and ±100 the full control effect.

| Compound | max response, negative = inhibition |
| --- | --- |
| CS(=O)(=O)Oc1ccc2c(c1)O/C(=C\c1cccnc1)C2=O | inactive: 4% |
| CN(C(=O)c1ccc(OC2CCN(CCc3ccccc3)CC2)cc1)C1CCCCC1 | inconclusive: -34.8% |
| CCCCCC(=O)OC(CN1CCCCC1)CN1CCCC1=O (stereo not drawn) | inconclusive: -48.5% |
| COc1ccccc1CN(Cc1cc2cc3c(cc2[nH]c1=O)OCCO3)Cc1nnnn1Cc1ccco1 | inconclusive: -41% |
| O=C(NCCN1CCN(Cc2ccccc2)CC1)C1c2ccccc2C(=O)N2CCc3ccccc3C12 (stereo not drawn) | inconclusive: -47.6% |
| CCCN(CCC)Cc1cc(=O)oc2cc(OC)ccc12 | inconclusive: -38.3% |
| CN1CCN(P(=O)(c2ccccc2)c2nc3ccccc3s2)CC1 (stereo not drawn) | inconclusive: -34.7% |
| O=C(NNC(=S)Nc1ccc(F)cc1)c1cccc([N+](=O)[O-])c1 | inconclusive: -38.6% |
| CCOCCCNCc1cc(Br)ccc1OCC | inactive: 4.27% |
| Cn1c(CN2CCCCC2)nc2cc([N+](=O)[O-])ccc21 | inconclusive: -30.9% |
| CN(C)N1C(N)=C(C#N)C(c2cccc3ccccc23)C2=C1CC(c1ccccc1)CC2=O (stereo not drawn) | inconclusive: -32% |
| CC(C)c1ccc(O)c(NC(=S)NC(=O)c2ccc3c(c2)OCO3)c1 | inconclusive: -41.5% |
| COc1ccc([C@@H]2CC(=O)[C@@H]3CN(S(=O)(=O)c4ccc(C)cc4)[C@H](c4ccccc4)C[C@@H]3N2S(=O)(=O)c2ccccc2)cc1 | inconclusive: -30.8% |
| CC1=CC(=O)C=C(C)C1=NOc1ccc([N+](=O)[O-])cc1 | inconclusive: -31.1% |
| Cc1ccn2cc(C(=O)Nc3nnc(C)s3)nc2c1 | inconclusive: -30.3% |
| S=c1[nH]c(-c2ccc(Br)cc2)cn1CCc1ccccc1 | inactive: 25.1% |
| CCCOC(=O)Nc1ccc(S(=O)(=O)Nn2cnnc2)cc1 | inconclusive: -37% |
| O=C(COC(=O)c1cc(-c2cccs2)nc2ccccc12)NCc1ccco1 | inactive: 2.36% |
| Cc1cccc(Oc2nc(-c3ccncc3)nc3ccccc23)c1 | inactive: 20.4% |
| Cn1c(=O)c(Nc2ccc(Cl)cc2)c2c3c(cccc31)C(=O)c1ccccc1-2 | inconclusive: -32.9% |
| COc1cc(/C=N/NC(N)=O)cc([N+](=O)[O-])c1O | inconclusive: -35.2% |
| Cc1ccccc1C(=O)N/C(=C/c1ccc(-c2cccnc2Cl)o1)C(=O)NCCCN1CCN(C)CC1 | inconclusive: -38.2% |

| Compound | max response, negative = inhibition |
| --- | --- |
| Cc1ccc2[nH]c3c(c2c1)CN(C)CC3 | inconclusive: -45.2% |
| CCOC(=O)c1c(NC(=O)CCc2ccc(CC)o2)sc(C)c1C | inconclusive: -31.9% |
| O=C1Nc2ccc(Br)cc2/C1=C/C(=O)c1ccc2c(c1)OCO2 | inconclusive: -43.8% |
| O=C(CCN1CCN(Cc2ccccc2)CC1)NNC(=O)c1cc2ccccc2o1 | inconclusive: -37.8% |
| Cc1ccc(CN2CCN(Cc3ccc4c(c3)OCCO4)CC2CCO)cc1 (stereo not drawn) | active: -55.1% |
| CCOc1ccc(C(C)NC(=O)c2ccccc2F)cc1 (stereo not drawn) | inactive: 8.39% |
| CCNC(=O)CC1SC(=Nc2ccc(Cl)cc2)N(CC)C1=O (stereo not drawn) | inactive: -0.22% |
| COC(=O)C1=CN(Cc2ccccc2)C=C(C(=O)OC)C1c1cc(F)ccc1F | inconclusive: -37.4% |
| Cc1ccccc1CNC(=O)c1cc2ccccc2o1 | inactive: 24.6% |
| CCOCCCN(C)C1CCN(C(=O)c2oc3ccccc3c2NC(=O)c2ccc(F)cc2)CC1 | inconclusive: -40.9% |
| O=C(NNC(=O)C1CCCCC1)C(=O)NC1CCCCC1 | inconclusive: -32.5% |
| CCSc1nnc2c(n1)OC=Nc1ccc(Br)cc1-2 | inconclusive: -37.8% |
| Cc1ccc(-c2nnc(NC3CCCCC3)c3ccccc23)cc1S(=O)(=O)N1CCN(C)CC1 | inconclusive: -32.9% |
| O=C(CN1CCN(c2ccccn2)CC1)NC1CCCC1 | inconclusive: -30.1% |
| O=C(NCC(c1ccco1)N1CCCCC1)c1cc2c(s1)CCCC2 (stereo not drawn) | active: -75.3% |
| Cc1cc(-n2cccn2)ccc1CN1CCN(C2CCCC2)C(CCO)C1 (stereo not drawn) | active: -70.2% |
| COCCCNC(=O)c1csc([C@@H]2O[C@H](CO)[C@H](O)[C@H](O)[C@H]2O)n1 | inactive: 12.8% |
| Cc1cccc(OCC(=O)N2CCC(N3CCCCCC3)CC2)c1 | inconclusive: -46.5% |
| CC(=O)c1c(O)c(C)c(-c2ccccc2)n(-c2ccccc2)c1=O | inconclusive: -30.8% |
| CC1CN(CCCCOc2cccc(Oc3ccccc3)c2)CC(C)O1 (stereo not drawn) | inconclusive: -49.2% |
| Cc1cnc(C(=O)N(CCCn2ccnc2)C2C(=O)Nc3ccccc3N=C2c2ccccc2)cn1 (stereo not drawn) | inconclusive: -40.8% |
| COc1ccc(N2CCN(CC(O)COCCOc3ccc(Br)cc3)CC2)cc1 (stereo not drawn) | inactive: 9.68% |

In the list so far, these have an aryl methoxy group.

| Compound | max response, negative = inhibition |
| --- | --- |
| COc1ccccc1CN(Cc1cc2cc3c(cc2[nH]c1=O)OCCO3)Cc1nnnn1Cc1ccco1 | inconclusive: -41% |
| CCCN(CCC)Cc1cc(=O)oc2cc(OC)ccc12 | inconclusive: -38.3% |
| COc1ccc([C@@H]2CC(=O)[C@@H]3CN(S(=O)(=O)c4ccc(C)cc4)[C@H](c4ccccc4)C[C@@H]3N2S(=O)(=O)c2ccccc2)cc1 | inconclusive: -30.8% |
| COc1cc(/C=N/NC(N)=O)cc([N+](=O)[O-])c1O | inconclusive: -35.2% |
| COc1ccc(N2CCN(CC(O)COCCOc3ccc(Br)cc3)CC2)cc1 (stereo not drawn) | inactive: 9.68% |

Next results follow.

| Compound | max response, negative = inhibition |
| --- | --- |
| CCC(C)NC(=O)CN1C(=O)CSc2ccc(S(=O)(=O)N3CCCC3)cc21 (stereo not drawn) | inactive: -9.04% |
| CC(C)CCOCC(=O)Nc1cccc(C(=O)O)c1 | inconclusive: -41.4% |
| Cc1nn(-c2cc(N3CCCCC3)ccc2[N+](=O)[O-])c(=O)c2ccccc12 | inconclusive: -32% |
| COCCn1nnnc1CN(Cc1cc2cc(OC)c(OC)cc2[nH]c1=O)C1CCCC1 | inconclusive: -37.7% |
| CCN(Cc1ccc(O)cc1)CC1CCCN(CCc2cccc(F)c2)C1 (stereo not drawn) | inconclusive: -32.3% |
| CCOC(=O)C1=CCN(S(=O)(=O)c2ccc(C)cc2)[C@H]1c1ccccc1Cl | inactive: 9.78% |
| COc1cc(/C=N/NC(=O)C2COc3ccccc3O2)ccc1O (stereo not drawn) | active: -56.4% |
| COc1cccc(Nc2nc(-c3ccc(O)cc3)cs2)c1 | inactive: -24.9% |
| Cc1ccc2nc(C)cc(C(=O)NC3CCCCCC3)c2c1 | inconclusive: -43.6% |
| COc1ccccc1CC1CC(=O)N(c2ccc([N+](=O)[O-])cc2)C1=O (stereo not drawn) | inconclusive: -44.8% |
| O=C(NCc1ccccc1)C1=C[C@@H](c2coc3ccccc3c2=O)C[C@@H](OCc2ccc(CO)cc2)O1 | inactive: 26.2% |
| COc1cc2c(cc1OC)CN(c1ccc([N+](=O)[O-])cc1Cl)CC2 | inconclusive: -35.4% |
| CCCn1c(SCC#N)nc2c(c1=O)C1(CCCC1)Cc1ccccc1-2 | inconclusive: -39.2% |
| NC(=O)C1CCN(CC(=O)Nc2cccnc2Cl)CC1 | inactive: -7.18% |
| CCOC(=O)c1c(NC(=O)OC)sc2c1CCC2 | inactive: 23% |
| CCOc1ccc(-c2csc(NC(=O)CSC3=NC(=O)CN3C(C)=O)n2)c2ccccc12 | inactive: -13% |
| O=C(COC(=O)c1cc[n+]([O-])cc1)Nc1ccc(Cl)c(C(F)(F)F)c1 | inconclusive: -32.3% |
| Cc1ccc(S(=O)(=O)NCCC(=O)N2CCN(c3cccc(Cl)c3)CC2)cc1C | inactive: 1.84% |
| CC(=O)Nc1cccc(NC(=O)CSc2nc(C)c(C)c(C)c2C#N)c1 | inactive: -19% |
| Cc1nc2ccccc2c2nc(N)nn12 | inactive: 11.6% |
| Cc1ccc(NC(=O)CN2CCc3ccccc3C2)cc1C | inconclusive: -47.8% |
| Cc1ccc(-n2c(SCCN)nnc2-c2cccc(C)c2)cc1 | inconclusive: -36.9% |

| Compound | max response, negative = inhibition |
| --- | --- |
| Cc1ccc(S(=O)(=O)c2nc(-c3ccccc3)oc2NCCN2CCOCC2)cc1 | active: -73.2% |
| CC1CCCN(S(=O)(=O)c2ccc3c(c2)C(C)(C)C(=O)N3C)C1 (stereo not drawn) | inconclusive: -36.9% |
| Cc1cc2nc(-c3ccc[nH]c3=O)n(Cc3ccc(F)cc3)c2cc1C | inconclusive: -49% |
| COc1ccc([C@H]2CC(=O)C=C(/C=C/c3ccccc3)C2)cc1 | inconclusive: -33.2% |
| COc1ccc(-c2nc(CN3CCN(c4ccccc4OC)CC3)c(C)o2)cc1 | active: -70.9% |
| Cc1ccc(-n2c(C)cc(/C=C(\C#N)C(=O)NCC3CCCO3)c2C)cc1 (stereo not drawn) | inconclusive: -42% |
| O=[N+]([O-])c1cc(/C=N/O)ccc1Sc1ccccc1 | inconclusive: -33.2% |
| CCO[C@@H]1OC(C(=O)NCc2ccccc2)=C[C@H](c2coc3ccccc3c2=O)[C@H]1CCCO | inconclusive: -41.8% |
| O=C(Nc1ccc2c(c1)OCO2)c1c[nH]c(=O)n(-c2ccc(F)cc2)c1=O | inactive: -8.81% |
| Cc1ccc(NC(=O)c2ccc(Cl)c(N3C(=O)C=CC3=O)c2)cc1 | inconclusive: -45.2% |
| CN1CCc2nc(SCC(=O)Nc3cccc(F)c3)c(C#N)c(-c3cccs3)c2C1 | active: -50.3% |
| CC(=O)N1CCN(c2nc(-c3cccs3)nc3ccccc23)CC1 | inactive: -0.248% |
| CC(Sc1nnc(-c2ccccc2)c(-c2ccccc2)n1)C(=O)NCC1CCCO1 (stereo not drawn) | inactive: 0% |
| CS(=O)(=O)N(CC(=O)Nc1ccccc1Sc1ccccc1)C1CCCCC1 | inconclusive: -31.9% |
| O=S(=O)(c1ccc2c(c1)C(=NO)c1cc(S(=O)(=O)N3CCCCC3)ccc1-2)N1CCCCC1 | inconclusive: -46.1% |
| O=C(NCCC1=CCCCC1)c1coc(=O)c(Br)c1 | inconclusive: -36.1% |
| O=C(CN1CCN(c2ccccc2F)CC1)c1c[nH]c2ccccc12 | inconclusive: -42.2% |
| CCOC(=O)C1=C(C)N(CCCCCC(=O)O)C(=O)NC1c1ccc(Cl)cc1 (stereo not drawn) | inconclusive: -46.9% |
| Cc1cc(C)nc(N/N=C/C2=C(N3CCOCC3)C(=C\c3ccc(Cl)cc3)/CC2)n1 | inconclusive: -32.2% |
| O=c1[nH]c(-c2ccccc2)cs1 | inactive: -5.62% |
| CC1(C(=O)NCc2ccco2)CCN1C(=O)C1(c2ccccc2)CC1 (stereo not drawn) | inactive: -6.32% |
| COc1ccc(OC)c(N2Cc3ccccc3C2)c1 | inconclusive: -42.5% |
